A short description of this assay: qHTS Assay for Lipid Storage Modulators in Drosophila S3 Cells.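 On cell number change: cells counted by Cell Tracker Red CMTPX staining in the red channel.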 To be noted: BODIPY lipid droplet fluorescence, 18-24 h; for cell number change: measured here: cell count max response, cells fed with added oleic acid. In a few lines:
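Drosophila S3 cells loaded with oleic acid (400 uM, as added) and compounds at several concentrations; lipid droplets imaged by 488-nm laser-scanning cytometry, 500–530 nm intensity and object ratio to cell channel. Percent activity normalized to 20 uM Triacsin C.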

Setting [1] is: measured here: cell number channel AC50, cells fed with added oleic acid.
[2] abbreviates: measured here: lipid fluorescence (Fed channel) AC50, cells fed with added oleic acid.

As a reminder, the AC50 is the concentration giving half of the maximal activity seen. Low values mean activity at low concentration, high ones activity only at high concentration.

SMILES strings stand for the structures. This is one part of the list. The main result of the screen is listed elsewhere. These columns were measured beside it and carry no call. The list favours compounds with an active or inconclusive main result. Words in brackets tell the shape of the fitted curve; partial curves, single points and poor fits give uncertain potencies.

In the case of `O=C(CSc1nc(CCC2CCCC2)nc2ccccc12)NCc1ccc2c(c1)OCO2`, the cell number change was -33.7%. In addition, the AC50 under setting [1] is 18.4 µM [falling, single point]. Further, the AC50 under setting [2] is 20.6 µM [falling, single point].
For `Cn1cnnc1Sc1ccc(C(=O)OCC(=O)NCC(F)(F)F)cc1[N+](=O)[O-]`, the cell number change turned out to be 6.12%. The AC50 under setting [2] is 0.00651 µM [falling, full curve, poor fit].
As for `Cc1cc([N+](=O)[O-])nn1CC(=O)N/N=C/c1ccc(O)cc1O`, the cell number change was -2.99%. For the same molecule, the AC50 under setting [1] is 6.51 µM [rising, single point].
In the case of `COc1cc(N=C2C(=O)N3CCCc4cccc2c43)cc(OC)c1`, the cell number change is -61.8%. Moreover, the AC50 under setting [1] is 29.1 µM [falling, single point]. For the same molecule, under setting [2], the AC50 is 18.4 µM [falling, single point].
With `COc1ccccc1NC(=O)C(C)Sc1nnc2ccccn12` (centres undefined), the cell number change is 1.75%. Besides, under setting [2], the AC50 is 0.461 µM [rising, full curve, poor fit].
`CC(NCCN(C)C)C(=O)C12CC3CC(CC(C3)C1)C2` (centres undefined): the cell number change was -14.7%. Moreover, under setting [2], the AC50 is 25.9 µM [falling, single point].
With `O=c1c(C=Nc2ccc(Oc3ccccc3)cc2)c[nH]n1-c1cccc(Cl)n1`, the cell number change was 83.8%. In addition, under setting [1], the AC50 was 14.6 µM [rising, partial curve]. The AC50 under setting [2] was 29.1 µM [rising, single point].
Turning to `CN1CCN(C(=O)/C(=C/c2ccco2)NC(=O)c2ccccc2)CC1`, the cell number change is -23.8%. The AC50 under setting [2] was 0.206 µM [rising, single point].
Consider `Cn1c(=O)[nH]c(=O)c2[nH]c(N(Cc3ccccc3)Cc3ccccc3)nc21`, for which the cell number change is -54.9%. The AC50 under setting [1] is 29.1 µM [falling, single point]. Besides, the AC50 under setting [2] is 32.6 µM [falling, single point].
`C[C@H](O)Cc1cn(-c2cc3cc(C#Cc4ccsc4)ccc3oc2=O)nn1`: the cell number change is -7.34%.
`CC(=O)Nc1ccc(S(=O)(=O)NC(C)C(=O)NCCc2ccc(F)cc2)cc1` (centres undefined): the cell number change was -12%. Also, the AC50 under setting [1] was 0.103 µM [falling, full curve, poor fit].
For `O=C(NC1CCCC1)c1ccc(CS(=O)(=O)c2ccc(Cl)cc2)o1`, the cell number change was -18.8%.
With `Cc1cc(S(=O)(=O)Nc2ccc(N3CCOCC3)cc2)ccc1Br`, the cell number change was -36.8%. The AC50 under setting [1] is 29.1 µM [falling, single point]. In addition, the AC50 under setting [2] is 6.31 µM [falling, single point].
For `O=C(CCl)Nc1ccccc1C(=O)c1ccccc1`, the cell number change is -42.2%. Moreover, the AC50 under setting [1] was 29.1 µM [falling, single point]. Further, the AC50 under setting [2] was 32.6 µM [falling, single point].
`N#Cc1nc(-c2ccco2)oc1N1CCN(Cc2ccccc2)CC1`: the cell number change turned out to be 1.27%. Further, the AC50 under setting [1] is 0.103 µM [falling, full curve, poor fit]. In addition, under setting [2], the AC50 is 0.092 µM [falling, full curve, poor fit].
`Oc1ccccc1CN1CCCN(Cc2ccccc2O)C1`: the AC50 under setting [1] is 0.517 µM [rising, single point].
Regarding `O=C(CSc1nnc(C2CC2)n1-c1ccccc1)NCCc1ccccc1`, the cell number change was -16.5%. Besides, under setting [1], the AC50 is 3.26 µM [rising, single point].
On to `O=C(Nc1nccs1)c1cccc(S(=O)(=O)N2CCCC2)c1`, for which the cell number change was found to be 14.4%. The AC50 under setting [2] is 3.66 µM [falling, partial curve, poor fit].
For `Cc1cccc2nc(-c3ccccc3)nc(N3CCC(O)(c4ccc(Cl)cc4)CC3)c12`, the cell number change is -13.4%.
Same read-out and setting: under `COC(=O)c1c(C(=O)OC)c(-c2cccc(C)c2)n2c1CS(=O)C2` (centres undefined) stands -1.46%.
Turning to `CCOc1ccccc1NC(=O)COn1nnc2ccc(Cl)cc21`, the cell number change was -3.61%. The AC50 under setting [2] is 16.4 µM [falling, single point].
As to `CCCCN1C(=O)Cc2c1nc(N)c1c(N)nc(N(CCC)CCC)c(C#N)c21`, the cell number change is -50.2%. Also, the concentration at half-maximal activity (AC50) under setting [1] is 7.31 µM [falling, full curve, poor fit]. Further, under setting [2], the AC50 is 13 µM [falling, partial curve, poor fit].
For the molecule `c1cc2c3c(cccc3c1)NC1(CCC3(CC1)Nc1cccc4cccc(c14)N3)N2`, the cell number change was -37.8%. In addition, the AC50 under setting [1] was 13 µM [falling, partial curve]. Moreover, under setting [2], the AC50 is 14.6 µM [falling, partial curve].
On to `CCOC(=O)N1CCC(NC(=O)C2CCN(c3ccc(N4CCOCC4)nn3)CC2)CC1`, for which the cell number change is -3.55%.
With `COc1ccc(S(=O)(=O)N(C)CC(=O)Nc2cccc(C(C)=O)c2)cc1`, the cell number change worked out at 3.51%. Further, under setting [2], the AC50 is 2.91 µM [rising, full curve, poor fit].
As to `COc1ccc(C(CCN2CCOCC2)c2c(O)cc(OC)cc2OC)cc1` (centres undefined), the cell number change was 24.9%. For the same molecule, the AC50 under setting [2] was 25.9 µM [rising, partial curve, poor fit].
With `CCOC(=O)c1c(C)sc2c1N(C(=O)CCl)c1cc(Cl)ccc1S2`, the cell number change is -50.7%. In addition, the AC50 under setting [1] was 32.6 µM [falling, partial curve, poor fit]. The concentration at half-maximal activity (AC50) under setting [2] was 14.6 µM [falling, partial curve].
In the case of `Cc1oc2cc3oc(=O)c(CCC(=O)NCc4ccccn4)c(C)c3cc2c1C`, the cell number change was -2.91%. Also, under setting [2], the AC50 is 29.1 µM [rising, single point].
`CCCN(CC(=O)Nc1ccccc1OC)C(=O)c1ccc(S(=O)(=O)Nc2ccccc2)cc1`: the cell number change was 3.9%. The AC50 under setting [2] is 29.1 µM [falling, single point].
Turning to `CCOc1ccc(CCN2C(=O)c3cccnc3C2=O)cc1OCC`, the cell number change is -38.7%.
Consider `Cc1ccc(CNC(=O)CSc2ccsc2[N+](=O)[O-])cc1`, for which the cell number change was -17.7%.
As to `CN(C)S(=O)(=O)c1cccc(NC(=S)NC(=O)C2CCCCC2)c1`, the cell number change worked out at 36.3%. Besides, under setting [1], the AC50 was 0.326 µM [rising, full curve, poor fit]. For the same molecule, the AC50 under setting [2] was 10.3 µM [rising, partial curve, poor fit].
Regarding `c1ccc(C[C@H]2CN=C(Nc3ccccc3)N2CC2CCC2)cc1`, the cell number change came to 5.28%.
On to `CCOC(=O)CSc1nnc(-c2cccs2)n1-c1ccccc1`, for which the cell number change was 3.4%.
Consider `COc1ccc(N=C2NC(=O)/C(=C/c3ccc(O)c(OC)c3)S2)cc1`, for which the cell number change was -9.05%. Further, the AC50 under setting [2] was 7.31 µM [rising, partial curve].
As for `O=S(=O)(c1ccccc1)N1CCN(c2nc(-c3cccs3)nc3ccccc23)CC1`, the cell number change was -7.4%. The AC50 under setting [2] was 29.1 µM [rising, single point].
As for `CSCC[C@H](NC(=O)Nc1cccc(C(F)(F)F)c1)C(=O)O`, the AC50 under setting [2] is 10.3 µM [falling, partial curve].
